The other results are listed elsewhere or left out.
Assays:
Assay in all cases: log2 fold change, soluble protein after heating vs DMSO (PISA); higher = thermal stabilisation; K562 cells, 10 uM, 30 min; active = over 0.2 and 3.5 SD of the protein, either way, in both replicates (recomputed)
sotrastaurin = compound: CN1CCN(c2nc(C3=C(c4c[nH]c5ccccc45)C(=O)NC3=O)c3ccccc3n2)CC1 [sotrastaurin]
Procedure, shortened: (§1)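 Soluble protein was defined as the supernatant after 21,000xg for 90 min. It came from K562 cells at 2×10^6 cells/mL given 10 μM compound for 30 min, heated in aliquots for 3 min across 48°C-58°C, pooled, and extracted in PBS with 0.5% NP-40 at 4°C, and was quantified by TMTpro 16plex LC-MS/MS with equalised channel sums. Thermal stability against control samples, from duplicates, is reported as log2 fold change.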

Amino acid sequences for entries named in this document (tags omitted). A change or cut given only in a name is not applied to a line headed by its entry.
UniProt P03891, whole entry, looked up: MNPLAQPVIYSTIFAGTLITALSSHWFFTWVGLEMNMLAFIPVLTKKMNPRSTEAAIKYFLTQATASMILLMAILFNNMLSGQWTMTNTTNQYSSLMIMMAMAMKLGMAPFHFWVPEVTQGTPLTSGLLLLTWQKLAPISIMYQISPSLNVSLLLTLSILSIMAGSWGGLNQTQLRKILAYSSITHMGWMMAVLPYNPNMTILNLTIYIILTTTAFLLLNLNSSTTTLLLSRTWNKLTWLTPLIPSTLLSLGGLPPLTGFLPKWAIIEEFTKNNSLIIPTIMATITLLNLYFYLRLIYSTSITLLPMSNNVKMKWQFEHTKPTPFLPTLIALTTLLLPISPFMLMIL
UniProt Q2M296: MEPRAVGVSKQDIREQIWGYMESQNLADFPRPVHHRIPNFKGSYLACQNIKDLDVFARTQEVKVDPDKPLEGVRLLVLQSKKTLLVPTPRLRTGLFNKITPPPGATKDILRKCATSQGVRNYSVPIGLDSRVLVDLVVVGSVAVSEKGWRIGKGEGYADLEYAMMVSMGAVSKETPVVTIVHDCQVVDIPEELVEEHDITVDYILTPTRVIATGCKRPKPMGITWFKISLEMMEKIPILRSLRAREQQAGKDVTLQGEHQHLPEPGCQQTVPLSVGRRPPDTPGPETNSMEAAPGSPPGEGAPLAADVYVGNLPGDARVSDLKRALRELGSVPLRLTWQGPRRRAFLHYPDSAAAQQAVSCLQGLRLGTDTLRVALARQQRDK
UniProt Q9H6N6: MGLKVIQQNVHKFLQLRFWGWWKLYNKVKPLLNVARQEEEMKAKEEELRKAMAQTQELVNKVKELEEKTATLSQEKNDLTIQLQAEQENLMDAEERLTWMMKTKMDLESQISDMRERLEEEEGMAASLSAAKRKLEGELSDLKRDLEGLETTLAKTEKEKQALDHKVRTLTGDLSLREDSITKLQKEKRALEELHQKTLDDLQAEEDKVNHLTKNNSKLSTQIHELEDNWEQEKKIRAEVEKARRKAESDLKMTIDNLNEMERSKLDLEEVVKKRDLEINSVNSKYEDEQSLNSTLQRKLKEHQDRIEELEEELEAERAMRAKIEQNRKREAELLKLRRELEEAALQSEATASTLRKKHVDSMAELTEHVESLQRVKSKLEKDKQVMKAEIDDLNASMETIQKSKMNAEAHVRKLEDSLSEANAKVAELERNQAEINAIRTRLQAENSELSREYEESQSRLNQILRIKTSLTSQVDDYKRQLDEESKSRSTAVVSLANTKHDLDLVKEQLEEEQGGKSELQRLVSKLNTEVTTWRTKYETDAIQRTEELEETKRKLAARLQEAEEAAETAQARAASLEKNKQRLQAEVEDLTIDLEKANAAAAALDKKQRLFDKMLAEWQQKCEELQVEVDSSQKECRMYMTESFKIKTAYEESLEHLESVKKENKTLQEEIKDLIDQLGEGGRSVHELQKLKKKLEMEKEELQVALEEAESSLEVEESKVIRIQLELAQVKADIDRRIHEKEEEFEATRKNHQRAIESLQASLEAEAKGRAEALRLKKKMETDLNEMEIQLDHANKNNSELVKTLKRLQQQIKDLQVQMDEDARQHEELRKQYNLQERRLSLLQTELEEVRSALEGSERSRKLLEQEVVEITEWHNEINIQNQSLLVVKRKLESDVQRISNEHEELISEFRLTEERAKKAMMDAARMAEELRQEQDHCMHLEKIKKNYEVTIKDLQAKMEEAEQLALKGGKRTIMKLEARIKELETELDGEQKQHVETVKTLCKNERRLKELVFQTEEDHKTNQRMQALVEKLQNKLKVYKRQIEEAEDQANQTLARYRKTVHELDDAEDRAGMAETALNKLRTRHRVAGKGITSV
UniProt O43795: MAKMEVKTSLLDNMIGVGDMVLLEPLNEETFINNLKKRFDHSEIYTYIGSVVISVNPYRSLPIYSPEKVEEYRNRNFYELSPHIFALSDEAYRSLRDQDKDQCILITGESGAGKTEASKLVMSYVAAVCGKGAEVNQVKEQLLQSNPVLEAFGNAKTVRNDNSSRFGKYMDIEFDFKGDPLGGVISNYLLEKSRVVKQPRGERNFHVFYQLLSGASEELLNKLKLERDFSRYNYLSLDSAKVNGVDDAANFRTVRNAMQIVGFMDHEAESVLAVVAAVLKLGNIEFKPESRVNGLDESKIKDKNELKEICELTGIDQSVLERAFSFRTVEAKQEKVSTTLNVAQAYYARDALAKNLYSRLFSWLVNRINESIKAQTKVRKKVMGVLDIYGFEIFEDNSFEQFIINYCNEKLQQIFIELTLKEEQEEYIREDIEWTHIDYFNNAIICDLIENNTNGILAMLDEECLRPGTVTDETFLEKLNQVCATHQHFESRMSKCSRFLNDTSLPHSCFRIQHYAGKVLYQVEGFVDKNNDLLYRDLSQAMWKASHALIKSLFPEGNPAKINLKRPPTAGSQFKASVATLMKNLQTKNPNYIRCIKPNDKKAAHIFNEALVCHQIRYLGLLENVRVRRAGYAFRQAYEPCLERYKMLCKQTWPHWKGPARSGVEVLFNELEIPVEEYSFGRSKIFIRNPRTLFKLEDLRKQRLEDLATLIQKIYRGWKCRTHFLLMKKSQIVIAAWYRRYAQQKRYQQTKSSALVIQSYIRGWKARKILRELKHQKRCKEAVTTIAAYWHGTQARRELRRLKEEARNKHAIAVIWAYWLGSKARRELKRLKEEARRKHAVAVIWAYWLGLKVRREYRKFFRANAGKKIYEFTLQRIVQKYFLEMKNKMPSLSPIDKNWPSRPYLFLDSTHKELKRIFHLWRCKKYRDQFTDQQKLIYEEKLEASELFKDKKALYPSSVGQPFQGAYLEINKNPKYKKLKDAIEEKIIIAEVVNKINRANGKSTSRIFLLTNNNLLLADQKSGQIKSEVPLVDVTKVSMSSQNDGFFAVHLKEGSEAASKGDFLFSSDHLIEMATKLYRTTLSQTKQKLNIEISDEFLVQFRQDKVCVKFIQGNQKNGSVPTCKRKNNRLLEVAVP
UniProt Q9BRK3: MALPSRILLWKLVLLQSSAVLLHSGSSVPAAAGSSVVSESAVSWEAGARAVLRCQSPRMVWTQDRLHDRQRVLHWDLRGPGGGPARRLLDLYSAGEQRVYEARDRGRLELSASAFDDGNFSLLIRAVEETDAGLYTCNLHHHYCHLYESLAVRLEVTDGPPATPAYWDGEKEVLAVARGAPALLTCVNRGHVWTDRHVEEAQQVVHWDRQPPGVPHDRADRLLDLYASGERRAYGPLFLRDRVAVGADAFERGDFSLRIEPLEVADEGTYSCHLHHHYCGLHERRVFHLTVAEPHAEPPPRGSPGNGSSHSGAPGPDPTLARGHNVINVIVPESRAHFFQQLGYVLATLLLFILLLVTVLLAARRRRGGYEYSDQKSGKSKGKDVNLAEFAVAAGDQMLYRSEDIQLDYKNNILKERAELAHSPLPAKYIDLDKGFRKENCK
UniProt Q9BT17: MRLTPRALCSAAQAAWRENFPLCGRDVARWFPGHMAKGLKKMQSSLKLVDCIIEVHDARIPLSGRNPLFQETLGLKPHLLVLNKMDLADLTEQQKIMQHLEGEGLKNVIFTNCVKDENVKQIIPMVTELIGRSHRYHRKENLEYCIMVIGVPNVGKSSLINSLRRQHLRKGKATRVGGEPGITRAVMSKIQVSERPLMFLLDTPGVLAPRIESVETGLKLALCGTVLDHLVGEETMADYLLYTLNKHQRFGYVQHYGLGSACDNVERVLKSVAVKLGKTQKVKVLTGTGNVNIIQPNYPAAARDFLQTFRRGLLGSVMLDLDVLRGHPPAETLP

Tubastatin A = compound: CN1CCc2c(c3ccccc3n2Cc2ccc(C(=O)NO)cc2)C1 [Tubastatin A]
Procedure, shortened: as §1

[1] = compound: CNC(=O)C1=CC=CC=C1NC2=NC(=NC=C2Cl)NC3=C(C=C(C=C3)N4CCOCC4)OC
Procedure, shortened: as §1

defactinib = compound: CNC(=O)c1ccc(Nc2ncc(C(F)(F)F)c(NCc3nccnc3N(C)S(C)(=O)=O)n2)cc1 [defactinib]
Procedure, shortened: as §1

rucaparib = compound: CNCc1ccc(-c2[nH]c3cc(F)cc4c3c2CCNC4=O)cc1 [rucaparib]
Procedure, shortened: as §1

encorafenib = compound: COC(=O)N[C@@H](C)CNc1nccc(-c2cn(C(C)C)nc2-c2cc(Cl)cc(NS(C)(=O)=O)c2F)n1 [encorafenib]
Procedure, shortened: as §1

[2] = compound: COC(=O)[C@H](CCSC)NC(=O)C1=C(C=C(C=C1)NC[C@H](CS)N)C2=CC=CC=C2
Procedure, shortened: as §1

[3] = compound: COC1=CC=C(C=C1)CN2C=CC3=C2C=C(C=C3)C(=O)NO
Procedure, shortened: as §1

filanesib = compound: CON(C)C(=O)N1N=C(c2cc(F)ccc2F)S[C@@]1(CCCN)c1ccccc1 [filanesib]
Procedure, shortened: as §1

zotarolimus = compound: CO[C@H]1C[C@@H]2CC[C@@H](C)[C@@](O)(O2)C(=O)C(=O)N2CCCC[C@H]2C(=O)O[C@H]([C@H](C)C[C@@H]2CC[C@H](n3cnnn3)[C@H](OC)C2)CC(=O)[C@H](C)/C=C(\C)[C@@H](O)[C@@H](OC)C(=O)[C@H](C)C[C@H](C)/C=C/C=C/C=C/1C [zotarolimus]
Procedure, shortened: as §1

idasanutlin = compound: COc1cc(C(=O)O)ccc1NC(=O)[C@@H]1N[C@@H](CC(C)(C)C)[C@](C#N)(c2ccc(Cl)cc2F)[C@H]1c1cccc(Cl)c1F [idasanutlin]
Procedure, shortened: as §1

alisertib = compound: COc1cc(Nc2ncc3c(n2)-c2ccc(Cl)cc2C(c2c(F)cccc2OC)=NC3)ccc1C(=O)O [alisertib]
Procedure, shortened: as §1

[4] = compound: COc1cc2nc(-c3cc(F)ccc3O)nc(N[C@@H]3CNC[C@H]3C(C)(C)O)c2cc1OC
Procedure, shortened: as §1

gefitinib = compound: COc1cc2ncnc(Nc3ccc(F)c(Cl)c3)c2cc1OCCCN1CCOCC1 [gefitinib]
Procedure, shortened: as §1

[5] = compound: COc1cccc2cc(-c3nc([C@H]4CC[C@H](C(=O)O)CC4)n4ncnc(N)c34)[nH]c12
Procedure, shortened: as §1

lapatinib = compound: CS(=O)(=O)CCNCc1ccc(-c2ccc3ncnc(Nc4ccc(OCc5cccc(F)c5)c(Cl)c4)c3c2)o1 [lapatinib]
Procedure, shortened: as §1

pictilisib = compound: CS(=O)(=O)N1CCN(Cc2cc3nc(-c4cccc5[nH]ncc45)nc(N4CCOCC4)c3s2)CC1 [pictilisib]
Procedure, shortened: as §1

saracatinib = compound: CN1CCN(CCOc2cc(OC3CCOCC3)c3c(Nc4c(Cl)ccc5c4OCO5)ncnc3c2)CC1 [saracatinib]
Procedure, shortened: as §1

[6] = compound: CNc1nc(-c2ccc3c(N)n[nH]c3c2)cc(N2C[C@@H](C(=O)NC3CCCCC3)CC[C@H]2C)n1
Procedure, shortened: as §1

alvocidib = compound: CN1CC[C@H](c2c(O)cc(O)c3c(=O)cc(-c4ccccc4Cl)oc23)[C@H](O)C1 [alvocidib]
Procedure, shortened: as §1

Row | Target | log2 fold change (sotrastaurin) | log2 fold change (Tubastatin A) | log2 fold change [1] | log2 fold change (defactinib) | log2 fold change (rucaparib) | log2 fold change (encorafenib) | log2 fold change [2] | log2 fold change [3] | log2 fold change (filanesib) | log2 fold change (zotarolimus) | log2 fold change (idasanutlin) | log2 fold change (alisertib) | log2 fold change [4] | log2 fold change (gefitinib) | log2 fold change [5] | log2 fold change (lapatinib) | log2 fold change (pictilisib) | log2 fold change (saracatinib) | log2 fold change [6] | log2 fold change (alvocidib)
1 | MRPS16 (UniProt Q9Y3D3) | inactive: -0.039 | inactive: 0.008 | inactive: -0.115 | inactive: 0.043 | inactive: 0.084 | inactive: 0.138 | inactive: 0 | inactive: -0.102 | inactive: 0.044 | inactive: 0.04 | active: -0.348 | inactive: 0.02 | inactive: -0.054 | inactive: -0.045 | inactive: -0.011 | inactive: 0.039 | inactive: -0.03 |  |  | 
2 | MT-ND2 (UniProt P03891) |  | inactive: -0.044 | inactive: 0 | inactive: -0.008 |  |  | inactive: 0.085 | inactive: -0.029 |  | inactive: 0.065 | inactive: -0.143 | inactive: 0.04 | inactive: -0.131 | inactive: 0.106 | inactive: 0.074 | inactive: -0.008 | inactive: 0.139 | inactive: -0.183 | inactive: -0.295 | 
3 | MTHFSD (UniProt Q2M296) |  | inactive: -0.002 |  |  |  |  |  |  |  | inactive: -0.018 | inactive: 0.162 | inactive: -0.041 |  |  | inactive: 0.001 |  |  | inactive: -0.187 | inactive: 0.034 | inactive: 0.213
4 | MTDH (UniProt E5RJU9) |  |  |  |  |  |  |  | inactive: 0.101 |  |  |  |  |  |  |  |  |  |  |  | 
5 | MYH16 (UniProt Q9H6N6) | inactive: -0.224 | inactive: -0.069 | inactive: -0.075 | inactive: 0.013 |  |  | inactive: -0.171 | active: 0.886 | inactive: -0.263 | inactive: -0.118 | inactive: -0.066 | inactive: 0.163 | inactive: -0.052 | inactive: -0.03 | inactive: -0.031 | inactive: 0.204 | inactive: -0.448 |  |  | 
6 | MYO1B (UniProt O43795) |  |  |  | inactive: -0.061 |  |  | inactive: 0.181 |  |  |  |  |  |  |  |  |  | inactive: -0.229 |  |  | 
7 | MXRA8 isoform 2 (UniProt Q9BRK3) | inactive: -0.006 | inactive: 0.023 | inactive: -0.041 | inactive: 0.083 |  |  | inactive: 0.105 | inactive: -0.472 | inactive: -0.076 | inactive: 0.017 | inactive: 0.173 | inactive: -0.264 |  |  | inactive: 0.083 |  |  |  |  | inactive: 0
8 | MTG1 (UniProt Q9BT17) |  | inactive: 0.153 | inactive: -0.002 | inactive: -0.06 |  |  | inactive: 0 | inactive: 0.13 |  | inactive: 0.041 | inactive: 0.035 | inactive: -0.014 | inactive: 0.08 | inactive: -0.01 | inactive: -0.286 | inactive: 0.05 | inactive: 0.136 | inactive: 0.007 | inactive: 0.025 | inactive: 0.114

Just log2 fold change [3], log2 fold change [5] and log2 fold change (idasanutlin), for some of the entries so far:

| Row | Target | log2 fold change [3] | log2 fold change [5] | log2 fold change (idasanutlin) |
| --- | --- | --- | --- | --- |
| 4 | MTDH (UniProt E5RJU9) | inactive: 0.101 |  |  |
| 8 | MTG1 (UniProt Q9BT17) | inactive: 0.13 | inactive: -0.286 | inactive: 0.035 |
